Assay [1] addresses RAGE fragment coated in Fig. 3C (antigen not named on the sheet). The assay is described as follows: condition: about 70 nM (last point, between 10 and 100 nM on the log axis); direct ELISA: purified E. coli RAGE construct protein coated at 1 ug/mL (construct not named for this panel), mAb titrated, donkey anti-mouse HRP, TMB.
For assay [2], the target named is RAGE fragment coated in Fig. 3B (antigen not named on the sheet). The description is as above.
For assay [3], the target named is RAGE fragment coated in Fig. 3A (antigen not named on the sheet). Described as above.
For assay [4], the target named is RAGE fragment coated in Fig. 4C (antigen not named on the sheet). The assay is described as follows: direct ELISA: purified E. coli RAGE construct protein coated at 1 ug/mL (construct not named for this panel), mAb titrated, donkey anti-mouse HRP, TMB.
The target of assay [5] is RAGE fragment coated in Fig. 4A (antigen not named on the sheet). The assay is described as above.
In assay [6] the target is RAGE fragment coated in Fig. 4B (antigen not named on the sheet). Described as above.
Assay [7] has as its target RAGE fragment coated in Fig. 4C (antigen not named on the sheet). The assay is described as follows: condition: about 70 nM (last point, between 10 and 100 nM on the log axis); direct ELISA: purified E. coli RAGE construct protein coated at 1 ug/mL (construct not named for this panel), mAb titrated, donkey anti-mouse HRP, TMB.
Assay [8] concerns the target RAGE fragment coated in Fig. 4A (antigen not named on the sheet). The description is as above.
Assay [9] addresses RAGE fragment coated in Fig. 4B (antigen not named on the sheet). Described as above.

These are yes or no findings as the source states them, for the method shown. For part of these data: Binding can be weak; no strength is given.

B1: anti-human RAGE monoclonal antibody 4E5 (murine, hybridoma-derived) (antibody, V domains shown)
VH: QVQLQQSGAELVRPGTSVKVSCKASGYAFNNYLIEWIKQRPGQGLEWIGVINPGSGGTNHNEKFKVKATLTADKSSSTAYIQLSSLTSDDSAVYFCARSAGTARARFAYWGQGTLVTVSA
VL: DIQMTQSPSSLSASLGERVSLTCRASQDIGSSLNWLQQEPDGTIKRLIYATSSLDSGVPKRFSGSRSGSDYSLTISSLESEDFVDYYCLQYASFPFTFGSGTKLEIKR
B1: the binding entry in assay [1] is recorded as “no binding”; in assay [2], “no binding”; in [3], “no binding”; in assay [4] it was “binds”; in assay [5] it was “binds”; in assay [6], “binds”.

B2: anti-human RAGE monoclonal antibody 7F9 (murine, hybridoma-derived) (antibody, V domains shown)
VH: EEKLEESGGGLVQLGGSMKISCVASGFTLSNYWMDWVRQSPEKGLEWIAEIRLKSNYYSTHYAESVKGRFSISRDDSKGSVSLQMDNLTAEDTGIYFCARNAYWYFDVWGTGTTVTVSS
VL: DIVMTQSHKFMSTSVGDRVSATCKASQDVGTSVAWYQQKLGQSPKLLIYWTSTRHTGVPDRFTGSGSGTDFTLTISNVQSEDLADYFCQQYNNYPLTFGDGTKLELKR
Consider B2, for which the binding result in assay [1], in [7], in assay [8], in [2], in [3] and in assay [9] was “no binding” in each case.

Source of the values: patent US20150307610A1.
